Source: the supplement of paper PMC10849652
The other results are listed elsewhere or left out. Residues, ends and D or L forms follow the SMILES beside them. *: point of attachment. Cbz = O=C(OCc1ccccc1)*

Chains of the proteins cited; added tags and fusions are not shown. Lines headed by an entry give the natural chain unless they say otherwise; changes in a name come on top.
UniProt P98196: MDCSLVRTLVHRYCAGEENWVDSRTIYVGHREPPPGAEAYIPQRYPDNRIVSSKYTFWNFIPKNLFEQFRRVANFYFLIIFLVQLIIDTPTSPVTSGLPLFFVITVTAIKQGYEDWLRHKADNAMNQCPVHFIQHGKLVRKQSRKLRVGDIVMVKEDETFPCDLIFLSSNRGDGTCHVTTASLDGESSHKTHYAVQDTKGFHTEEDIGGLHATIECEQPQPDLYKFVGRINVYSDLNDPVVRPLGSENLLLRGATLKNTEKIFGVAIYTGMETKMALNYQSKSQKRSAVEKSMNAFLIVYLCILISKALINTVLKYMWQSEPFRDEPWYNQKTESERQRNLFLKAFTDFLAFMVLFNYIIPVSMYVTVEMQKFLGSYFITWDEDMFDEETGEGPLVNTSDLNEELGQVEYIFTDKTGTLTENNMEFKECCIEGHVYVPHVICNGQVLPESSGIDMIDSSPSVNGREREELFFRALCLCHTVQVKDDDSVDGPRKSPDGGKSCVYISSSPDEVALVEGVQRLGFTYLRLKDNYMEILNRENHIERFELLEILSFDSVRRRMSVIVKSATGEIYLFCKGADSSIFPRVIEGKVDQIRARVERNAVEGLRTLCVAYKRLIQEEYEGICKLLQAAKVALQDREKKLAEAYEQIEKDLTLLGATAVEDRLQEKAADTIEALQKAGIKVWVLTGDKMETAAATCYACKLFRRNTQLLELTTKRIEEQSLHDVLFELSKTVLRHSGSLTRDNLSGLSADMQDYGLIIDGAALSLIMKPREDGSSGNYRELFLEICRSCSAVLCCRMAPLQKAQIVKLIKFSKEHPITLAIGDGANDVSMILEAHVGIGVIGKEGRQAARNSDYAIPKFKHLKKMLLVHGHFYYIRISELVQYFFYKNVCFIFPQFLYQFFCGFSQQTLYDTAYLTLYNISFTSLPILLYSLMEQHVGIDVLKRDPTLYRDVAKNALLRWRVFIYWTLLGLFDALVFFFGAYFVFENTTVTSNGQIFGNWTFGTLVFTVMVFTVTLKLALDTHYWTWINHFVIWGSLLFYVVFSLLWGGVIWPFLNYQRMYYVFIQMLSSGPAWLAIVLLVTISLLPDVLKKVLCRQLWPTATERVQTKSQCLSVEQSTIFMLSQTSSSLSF
UniProt Q9UI12, whole entry, looked up: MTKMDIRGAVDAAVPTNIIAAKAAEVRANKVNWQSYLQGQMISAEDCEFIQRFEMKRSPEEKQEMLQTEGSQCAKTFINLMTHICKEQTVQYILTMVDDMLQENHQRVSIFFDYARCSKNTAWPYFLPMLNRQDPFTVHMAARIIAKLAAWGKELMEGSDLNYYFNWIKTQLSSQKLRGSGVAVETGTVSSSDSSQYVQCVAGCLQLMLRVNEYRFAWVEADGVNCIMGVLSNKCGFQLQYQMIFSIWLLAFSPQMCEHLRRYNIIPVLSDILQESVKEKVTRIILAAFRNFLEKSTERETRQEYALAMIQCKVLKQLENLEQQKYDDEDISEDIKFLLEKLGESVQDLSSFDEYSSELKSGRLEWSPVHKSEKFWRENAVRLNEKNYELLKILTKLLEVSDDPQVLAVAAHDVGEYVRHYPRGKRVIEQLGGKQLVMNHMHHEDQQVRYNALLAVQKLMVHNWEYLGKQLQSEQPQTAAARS
UniProt P14415, whole entry, looked up: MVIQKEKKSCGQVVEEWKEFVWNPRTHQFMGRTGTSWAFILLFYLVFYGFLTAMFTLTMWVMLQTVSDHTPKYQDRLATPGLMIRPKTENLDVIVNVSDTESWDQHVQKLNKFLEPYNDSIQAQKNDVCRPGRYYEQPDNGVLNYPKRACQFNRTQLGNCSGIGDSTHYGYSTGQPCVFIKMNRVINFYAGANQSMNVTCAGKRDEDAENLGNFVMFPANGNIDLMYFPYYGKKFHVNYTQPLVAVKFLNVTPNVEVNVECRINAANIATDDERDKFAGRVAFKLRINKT
UniProt P17544: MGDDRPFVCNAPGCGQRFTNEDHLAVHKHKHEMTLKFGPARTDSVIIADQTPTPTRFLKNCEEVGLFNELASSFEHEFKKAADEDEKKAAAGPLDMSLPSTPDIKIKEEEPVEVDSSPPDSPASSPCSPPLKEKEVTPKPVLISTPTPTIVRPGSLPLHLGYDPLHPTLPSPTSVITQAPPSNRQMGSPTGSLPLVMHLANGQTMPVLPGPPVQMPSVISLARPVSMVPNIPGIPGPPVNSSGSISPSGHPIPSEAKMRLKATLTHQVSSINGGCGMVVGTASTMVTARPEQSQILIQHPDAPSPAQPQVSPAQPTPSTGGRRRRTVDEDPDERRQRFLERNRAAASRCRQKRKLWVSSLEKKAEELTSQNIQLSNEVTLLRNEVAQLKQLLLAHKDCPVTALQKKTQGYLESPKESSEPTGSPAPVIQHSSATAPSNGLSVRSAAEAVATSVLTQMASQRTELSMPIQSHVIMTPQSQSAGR
UniProt Q7Z3C6: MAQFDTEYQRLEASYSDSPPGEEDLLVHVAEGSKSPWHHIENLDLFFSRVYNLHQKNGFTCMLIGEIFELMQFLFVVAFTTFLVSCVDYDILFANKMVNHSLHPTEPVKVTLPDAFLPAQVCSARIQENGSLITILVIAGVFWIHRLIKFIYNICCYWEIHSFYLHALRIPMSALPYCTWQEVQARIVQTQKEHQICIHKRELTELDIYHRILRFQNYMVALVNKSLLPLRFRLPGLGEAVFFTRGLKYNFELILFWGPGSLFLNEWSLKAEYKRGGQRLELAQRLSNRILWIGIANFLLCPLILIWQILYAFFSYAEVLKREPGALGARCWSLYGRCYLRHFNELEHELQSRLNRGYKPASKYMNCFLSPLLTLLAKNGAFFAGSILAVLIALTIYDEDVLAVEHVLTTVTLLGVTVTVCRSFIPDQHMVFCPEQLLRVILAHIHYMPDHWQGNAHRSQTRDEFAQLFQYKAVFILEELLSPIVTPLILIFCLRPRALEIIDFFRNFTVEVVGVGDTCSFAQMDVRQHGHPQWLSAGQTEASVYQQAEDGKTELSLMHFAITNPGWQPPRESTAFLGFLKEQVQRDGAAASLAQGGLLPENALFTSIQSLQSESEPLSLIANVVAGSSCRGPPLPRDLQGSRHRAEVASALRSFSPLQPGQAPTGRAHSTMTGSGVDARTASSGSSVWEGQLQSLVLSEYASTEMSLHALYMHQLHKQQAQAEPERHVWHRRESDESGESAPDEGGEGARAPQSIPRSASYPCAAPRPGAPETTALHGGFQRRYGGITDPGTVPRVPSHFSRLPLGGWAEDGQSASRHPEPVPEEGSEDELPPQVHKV
UniProt P56385: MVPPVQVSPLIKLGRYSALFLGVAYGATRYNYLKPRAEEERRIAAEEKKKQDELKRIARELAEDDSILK
UniProt Q8NHH9: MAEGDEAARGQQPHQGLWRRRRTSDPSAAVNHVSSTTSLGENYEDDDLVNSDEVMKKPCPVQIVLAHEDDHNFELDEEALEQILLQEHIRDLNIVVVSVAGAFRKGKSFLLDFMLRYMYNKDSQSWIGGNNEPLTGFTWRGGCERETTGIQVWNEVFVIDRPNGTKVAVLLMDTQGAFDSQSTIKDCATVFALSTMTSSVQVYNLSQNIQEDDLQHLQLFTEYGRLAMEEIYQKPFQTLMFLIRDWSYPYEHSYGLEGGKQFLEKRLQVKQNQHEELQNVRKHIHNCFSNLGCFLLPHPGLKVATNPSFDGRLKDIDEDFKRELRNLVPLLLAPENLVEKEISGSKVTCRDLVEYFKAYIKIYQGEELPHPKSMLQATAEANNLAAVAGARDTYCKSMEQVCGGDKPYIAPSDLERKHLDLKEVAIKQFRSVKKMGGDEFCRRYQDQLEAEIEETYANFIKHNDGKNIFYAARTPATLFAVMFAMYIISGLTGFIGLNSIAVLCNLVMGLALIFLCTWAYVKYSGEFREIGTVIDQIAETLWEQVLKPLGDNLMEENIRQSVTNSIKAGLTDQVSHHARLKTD
UniProt P31939: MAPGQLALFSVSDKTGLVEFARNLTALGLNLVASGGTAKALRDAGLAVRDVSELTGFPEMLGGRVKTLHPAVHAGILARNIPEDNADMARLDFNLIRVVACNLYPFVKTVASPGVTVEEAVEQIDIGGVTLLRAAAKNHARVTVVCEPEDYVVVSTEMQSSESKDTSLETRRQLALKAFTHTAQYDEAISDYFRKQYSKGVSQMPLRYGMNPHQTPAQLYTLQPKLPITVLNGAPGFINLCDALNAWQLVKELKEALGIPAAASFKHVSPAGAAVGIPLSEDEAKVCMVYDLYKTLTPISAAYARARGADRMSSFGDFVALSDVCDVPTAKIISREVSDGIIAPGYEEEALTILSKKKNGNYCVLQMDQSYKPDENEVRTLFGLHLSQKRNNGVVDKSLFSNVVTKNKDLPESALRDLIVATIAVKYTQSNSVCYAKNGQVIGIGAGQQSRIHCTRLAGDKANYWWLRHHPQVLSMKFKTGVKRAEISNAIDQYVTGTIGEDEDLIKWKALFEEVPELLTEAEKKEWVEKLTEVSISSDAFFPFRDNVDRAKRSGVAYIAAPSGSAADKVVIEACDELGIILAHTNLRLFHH
UniProt Q9UII2: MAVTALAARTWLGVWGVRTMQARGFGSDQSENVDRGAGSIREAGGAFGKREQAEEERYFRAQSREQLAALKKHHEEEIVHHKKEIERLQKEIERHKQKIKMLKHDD
UniProt Q3SXY8: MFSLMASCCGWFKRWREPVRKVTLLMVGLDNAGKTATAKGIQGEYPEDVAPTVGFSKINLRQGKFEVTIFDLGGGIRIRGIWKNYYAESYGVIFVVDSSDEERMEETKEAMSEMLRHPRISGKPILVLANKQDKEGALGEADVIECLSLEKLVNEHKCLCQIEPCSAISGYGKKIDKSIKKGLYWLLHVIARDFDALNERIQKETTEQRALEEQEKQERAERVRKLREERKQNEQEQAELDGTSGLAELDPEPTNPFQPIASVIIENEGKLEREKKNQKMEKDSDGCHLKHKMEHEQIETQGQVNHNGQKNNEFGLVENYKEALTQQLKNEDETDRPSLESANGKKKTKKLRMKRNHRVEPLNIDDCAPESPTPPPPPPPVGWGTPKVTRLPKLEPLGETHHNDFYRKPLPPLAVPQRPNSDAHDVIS
UniProt P06576, whole entry, looked up: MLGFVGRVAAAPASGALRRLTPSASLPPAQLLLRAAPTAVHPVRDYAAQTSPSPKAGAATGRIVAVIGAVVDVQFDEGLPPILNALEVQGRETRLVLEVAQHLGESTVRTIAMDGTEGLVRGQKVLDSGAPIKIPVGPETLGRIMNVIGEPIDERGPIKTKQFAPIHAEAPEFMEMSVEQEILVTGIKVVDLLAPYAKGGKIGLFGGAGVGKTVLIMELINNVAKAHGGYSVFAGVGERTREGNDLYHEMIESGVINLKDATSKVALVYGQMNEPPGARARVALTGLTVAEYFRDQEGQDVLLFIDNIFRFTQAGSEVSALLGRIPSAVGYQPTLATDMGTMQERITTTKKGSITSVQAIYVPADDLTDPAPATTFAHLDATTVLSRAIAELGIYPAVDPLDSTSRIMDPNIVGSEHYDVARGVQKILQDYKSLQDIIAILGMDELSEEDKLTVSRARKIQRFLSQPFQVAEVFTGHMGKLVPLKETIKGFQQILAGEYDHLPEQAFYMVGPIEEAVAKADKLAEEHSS

Experiments:
Assay in all cases: log2 fold change, soluble protein after heating vs DMSO (PISA); higher = thermal stabilisation; K562 cells, 10 uM, 30 min; active = over 0.2 and 3.5 SD of the protein, either way, in both replicates (recomputed)
[1] = compound: C1COCCN1CCN2C3=CC=CC=C3N=C2NC(=O)C4=CC(=CC=C4)[N+](=O)[O-] [IRAK-1-4 Inhibitor I]
Procedure, shortened: (§1)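 K562 cells at 2×10^6 cells/mL were exposed to 10 μM compound for 30 min, then aliquots were heated for 3 min across 48°C-58°C, pooled, and extracted in PBS containing 0.5% NP-40 at 4°C. The supernatant after 21,000xg for 90 min was taken as soluble protein and measured by TMTpro 16plex LC-MS/MS with channel sums equalised. Thermal stability is reported relative to control samples, with values from duplicates. Fold changes are given on a log2 scale.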

[2] = compound: C=CC(=O)N1CCC[C@@H](n2nc(-c3ccc(Oc4ccccc4)cc3)c3c(N)ncnc32)C1 [ibrutinib]
Procedure, shortened: as §1

[3] = compound: CC(=O)c1cnc2ccc(-c3cc(Cl)c(O)c(Cl)c3)nc2c1N[C@H]1CC[C@H](CN(C)C)CC1
Procedure, shortened: as §1

[4] = compound: CC(C)(C)Cn1c(N)nc2ccc(-c3[nH]c(C(C)(C)C)nc3-c3ccc(F)cc3)nc21 [ralimetinib]
Procedure, shortened: as §1

[5] = compound: CC(C)(O)CC(=O)NCCn1ccc2ncnc(Nc3ccc(Oc4cccc(C(F)(F)F)c4)c(Cl)c3)c21
Procedure, shortened: as §1

[6] = compound: CC(C)C1=C2N=C(C=C(N2N=C1)NCC3=CC=CC=C3)NCCCCCCN
Procedure, shortened: as §1

[7] = compound: CC(C)C[C@@H](C=O)NC(=O)[C@H](CC(C)C)NC(=O)[C@H](CC(C)C)NC(=O)OCc1ccccc1
Procedure, shortened: as §1

[8] = compound: CC(C)N(C[C@H]1O[C@@H](n2cnc3c(N)ncnc32)[C@H](O)[C@@H]1O)[C@H]1C[C@@H](CCc2nc3cc(C(C)(C)C)ccc3[nH]2)C1 [pinometostat]
Procedure, shortened: as §1

[9] = compound: CC1=C(C2=C(C=C1)C(=O)C3=CC=CC=C3N2CCCN)C
Procedure, shortened: as §1

[10] = compound: CC1=C(C=C(C=C1)NC(=O)C2=CC(=CC=C2)C(C)(C)C#N)NC3=CC4=C(C=C3)N=CN(C4=O)C
Procedure, shortened: as §1

[11] = compound: CC1=C(C=C(C=C1)NC(=O)C2=CC(=CC=C2)N(C)C)NC(=O)C3=CC=C(C=C3)O
Procedure, shortened: as §1

[12] = compound: CC1=CC=C(C=C1)SC2=C3C=C(SC3=CN=C2)C(=O)N
Procedure, shortened: as §1

[13] = compound: CC1=NC(=CC=C1)C2=C(N=C(N2)C(C)(C)C)C3=CC4=NC=CN=C4C=C3
Procedure, shortened: as §1

[14] = compound: CCCCN(Cc1ccc(C(=O)NO)cc1)C(=O)Nc1ccccc1 [Nexturastat A]
Procedure, shortened: as §1

[15] = compound: CCCS(=O)(=O)Nc1ccc(F)c(C(=O)c2c[nH]c3ncc(-c4ccc(Cl)cc4)cc23)c1F [vemurafenib]
Procedure, shortened: as §1

[16] = compound: CCCS(=O)(=O)Nc1ccc(F)c(C(=O)c2c[nH]c3ncc(Cl)cc23)c1F
Procedure, shortened: as §1

[17] = compound: CCCc1cc(C)[nH]c(=O)c1CNC(=O)c1cc(-c2ccnc(N3CCN(C)CC3)c2)cc2c1cnn2C(C)C
Procedure, shortened: as §1

[18] = compound: CCN(CC)Cc1ccc2cc(COC(=O)Nc3ccc(C(=O)NO)cc3)ccc2c1 [givinostat]
Procedure, shortened: as §1

[19] = compound: CCN(CCCOc1ccc2c(Nc3cc(CC(=O)Nc4cccc(F)c4)[nH]n3)ncnc2c1)CCOP(=O)(O)O [barasertib]
Procedure, shortened: as §1

[20] = compound: CC1=C(C(CC(=O)N1)C2=CC=C(C=C2)C(F)(F)F)C(=O)NC3=C(C=C4C(=C3)C=NN4)F
Procedure, shortened: as §1

Measured: log2 fold change

ATP11A (UniProt P98196)
inactive: [1] -0.003 | [2] 0.007 | [3] 0.018 | [4] 0 | [5] -0.026 | [6] 0.073 | [7] 0.052 | [8] 0.004 | [9] 0.036 | [10] -0.033 | [11] -0.022 | [12] -0.039 | [13] -0.007 | [14] -0.005 | [15] 0.032 | [16] -0.027 | [17] -0.035 | [18] -0.007 | [19] -0.033

ATP6V1H (UniProt Q9UI12)
inactive: [1] -0.011 | [2] -0.033 | [3] -0.065 | [4] 0.007 | [5] -0.014 | [7] 0.043 | [8] -0.002 | [9] 0.028 | [10] 0.028 | [11] -0.016 | [12] 0.045 | [13] 0.014 | [14] -0.008 | [15] -0.004 | [16] 0.077 | [17] 0.022 | [18] 0.03 | [19] 0.018
active: [6] -0.241

ATP1B2 (UniProt P14415)
inactive: [1] -0.008 | [2] 0.055 | [3] -0.137 | [4] 0.037 | [5] -0.067 | [6] 0.081 | [7] 0 | [8] -0.048 | [9] 0.078 | [10] 0.16 | [11] -0.062 | [12] 0.23 | [13] 0.091 | [14] 0.026 | [15] -0.061 | [16] -0.101 | [17] -0.1 | [18] 0.02 | [19] 0.061

ATF7 isoform 6 (UniProt P17544)
inactive: [1] -0.031 | [2] 0.199 | [3] 0.183 | [4] 0.089 | [5] -0.042 | [6] 0.138 | [7] -0.14 | [8] 0.019 | [9] 0.22 | [10] 0.465 | [11] -0.163 | [12] -0.155 | [13] -0.085 | [14] -0.042 | [15] 0.045 | [16] 0.239 | [17] -0.032 | [18] -0.131 | [19] -0.033

ATG9A (UniProt Q7Z3C6)
inactive: [1] 0 | [2] 0.081 | [3] -0.091 | [4] -0.023 | [5] -0.056 | [6] -0.176 | [7] 0.06 | [8] 0.015 | [9] 0.038 | [10] -0.019 | [11] -0.017 | [12] 0.038 | [13] 0.008 | [14] -0.018 | [15] -0.006 | [16] 0.019 | [17] 0.007 | [18] 0.019 | [19] 0.045

ATP5ME (UniProt P56385)
inactive: [1] -0.003 | [2] -0.002 | [3] -0.019 | [4] -0.04 | [5] -0.044 | [6] 0.031 | [7] 0.011 | [8] -0.036 | [9] 0.039 | [10] 0.036 | [11] -0.037 | [12] 0.031 | [13] 0.011 | [14] -0.035 | [15] -0.003 | [16] -0.041 | [17] -0.041 | [18] 0.027 | [19] 0.007

ATL2 (UniProt Q8NHH9)
inactive: [1] 0.011 | [2] 0.006 | [3] -0.058 | [4] -0.116 | [5] -0.087 | [6] 0.054 | [7] -0.001 | [8] 0.035 | [9] 0.169 | [10] 0.022 | [11] -0.107 | [12] -0.013 | [13] 0.029 | [14] 0.037 | [15] -0.004 | [16] 0.005 | [17] -0.104 | [18] 0.023 | [19] 0.019

ATIC (UniProt P31939)
inactive: [1] 0.018 | [2] 0.013 | [3] -0.015 | [4] -0.007 | [5] 0 | [6] 0.079 | [7] -0.044 | [8] -0.04 | [9] 0.064 | [10] 0.083 | [11] -0.022 | [12] 0.059 | [13] 0.022 | [14] -0.076 | [15] 0.025 | [16] 0.052 | [17] 0.019 | [18] -0.036 | [19] 0.013

ATP5IF1 (UniProt Q9UII2)
inactive: [1] 0.121 | [2] 0.012 | [3] 0.018 | [4] -0.1 | [5] 0.099 | [6] 0.056 | [7] -0.048 | [8] -0.06 | [9] -0.006 | [10] -0.035 | [11] 0.009 | [12] -0.005 | [13] 0.021 | [14] -0.041 | [15] -0.078 | [16] -0.043 | [17] -0.022 | [18] -0.005 | [19] 0.026

ARL13B (UniProt Q3SXY8)
inactive: [1] 0.031 | [2] 0.033 | [3] 0.033 | [4] 0.011 | [5] 0.057 | [6] 0.078 | [7] 0.06 | [8] 0.04 | [20] 0.075 | [9] 0.07 | [10] 0.048 | [11] 0.045 | [13] 0.053 | [14] 0.115 | [15] 0.04 | [17] -0.033 | [18] 0.026 | [19] -0.01

3 successive entries out of the list so far, for reference:
ATP5ME (UniProt P56385)
inactive: [1] -0.003 | [2] -0.002 | [3] -0.019 | [4] -0.04 | [5] -0.044 | [6] 0.031 | [7] 0.011 | [8] -0.036 | [9] 0.039 | [10] 0.036 | [11] -0.037 | [12] 0.031 | [13] 0.011 | [14] -0.035 | [15] -0.003 | [16] -0.041 | [17] -0.041 | [18] 0.027 | [19] 0.007

ATL2 (UniProt Q8NHH9)
inactive: [1] 0.011 | [2] 0.006 | [3] -0.058 | [4] -0.116 | [5] -0.087 | [6] 0.054 | [7] -0.001 | [8] 0.035 | [9] 0.169 | [10] 0.022 | [11] -0.107 | [12] -0.013 | [13] 0.029 | [14] 0.037 | [15] -0.004 | [16] 0.005 | [17] -0.104 | [18] 0.023 | [19] 0.019

ATIC (UniProt P31939)
inactive: [1] 0.018 | [2] 0.013 | [3] -0.015 | [4] -0.007 | [5] 0 | [6] 0.079 | [7] -0.044 | [8] -0.04 | [9] 0.064 | [10] 0.083 | [11] -0.022 | [12] 0.059 | [13] 0.022 | [14] -0.076 | [15] 0.025 | [16] 0.052 | [17] 0.019 | [18] -0.036 | [19] 0.013

(continued)

ATP5F1B (UniProt P06576)
inactive: [1] 0.028 | [2] 0.016 | [3] 0.016 | [4] -0.024 | [5] 0.023 | [6] 0.042 | [7] 0.022 | [8] -0.009 | [20] 0.018 | [9] 0.001 | [10] -0.017 | [11] 0.007 | [12] -0.044 | [13] -0.003 | [14] -0.016 | [15] -0.023 | [16] -0.063 | [17] -0.011 | [18] -0.011 | [19] -0.02

ATP1A1 (UniProt P05023)
inactive: [1] 0.071 | [2] 0.03 | [3] 0.007 | [4] -0.029 | [5] -0.006 | [6] 0.182 | [7] -0.002 | [8] -0.006 | [9] 0.009 | [10] 0.002 | [11] 0.01 | [12] 0.015 | [13] 0.025 | [14] -0.019 | [15] 0.017 | [16] 0.005 | [17] 0.068 | [18] -0.001 | [19] -0.02
